Measured values published in publication PMC3929693.
No constants are given. Whether binding was seen depends on the method and setting. In cells and extracts the contact can be indirect. Some binding calls cover weakened binding; strength is not graded here. Tags and fused reporters may be left off the sequences shown. Blank lines part the entries; values can stand above or below the molecule they belong to.

Protein sequences, listed by entry. Tags and fused reporters are not part of them.
UniProt Q13546: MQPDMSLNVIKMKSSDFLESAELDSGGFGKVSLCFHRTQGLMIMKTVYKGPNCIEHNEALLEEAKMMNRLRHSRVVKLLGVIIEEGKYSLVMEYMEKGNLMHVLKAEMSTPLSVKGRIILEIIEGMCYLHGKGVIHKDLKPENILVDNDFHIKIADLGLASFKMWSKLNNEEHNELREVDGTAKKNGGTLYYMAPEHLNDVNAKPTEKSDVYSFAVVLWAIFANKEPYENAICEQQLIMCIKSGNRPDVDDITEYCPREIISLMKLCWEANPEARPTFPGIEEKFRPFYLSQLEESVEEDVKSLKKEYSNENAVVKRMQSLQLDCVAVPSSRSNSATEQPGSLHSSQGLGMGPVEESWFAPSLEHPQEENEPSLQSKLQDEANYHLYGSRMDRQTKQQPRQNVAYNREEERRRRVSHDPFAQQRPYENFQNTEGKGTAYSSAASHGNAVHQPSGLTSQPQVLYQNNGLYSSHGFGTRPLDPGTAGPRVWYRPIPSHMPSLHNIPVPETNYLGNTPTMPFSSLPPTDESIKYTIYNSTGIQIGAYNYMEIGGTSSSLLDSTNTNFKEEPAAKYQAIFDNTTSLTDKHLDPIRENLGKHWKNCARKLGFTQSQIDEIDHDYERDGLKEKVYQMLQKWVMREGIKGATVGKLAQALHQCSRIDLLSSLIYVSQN

Target: T1, Flag-tagged EVER2 (human) (UniProt Q8IU68)
T1 sequence: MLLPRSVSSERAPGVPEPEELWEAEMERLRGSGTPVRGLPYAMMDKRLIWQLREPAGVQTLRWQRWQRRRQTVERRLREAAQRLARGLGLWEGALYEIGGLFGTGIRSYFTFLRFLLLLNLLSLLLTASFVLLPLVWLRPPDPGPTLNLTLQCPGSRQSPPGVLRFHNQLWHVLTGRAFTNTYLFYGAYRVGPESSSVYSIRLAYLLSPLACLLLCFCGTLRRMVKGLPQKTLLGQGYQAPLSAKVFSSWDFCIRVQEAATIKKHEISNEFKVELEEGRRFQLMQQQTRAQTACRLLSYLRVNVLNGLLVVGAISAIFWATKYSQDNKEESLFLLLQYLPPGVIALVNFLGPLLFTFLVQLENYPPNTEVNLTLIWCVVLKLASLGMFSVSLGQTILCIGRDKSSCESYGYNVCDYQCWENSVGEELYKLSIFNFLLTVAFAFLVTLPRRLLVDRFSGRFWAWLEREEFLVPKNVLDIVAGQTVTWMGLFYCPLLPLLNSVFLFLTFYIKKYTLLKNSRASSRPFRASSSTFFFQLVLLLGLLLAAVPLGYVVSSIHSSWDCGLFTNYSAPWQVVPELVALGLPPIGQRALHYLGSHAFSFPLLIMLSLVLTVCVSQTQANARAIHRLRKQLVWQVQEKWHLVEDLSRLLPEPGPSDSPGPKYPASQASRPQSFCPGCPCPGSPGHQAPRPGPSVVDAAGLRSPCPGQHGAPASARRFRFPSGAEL
Experiment: co-IP; HEK-293T cells co-transfected with Flag-EVER2 and Gluc2-tagged proteins; crude lysates (50 mM Tris pH 7.5, 150 mM NaCl, 1 mM EDTA, 0.5% NP40, 0.25% DOC) immunoprecipitated with anti-Flag antibody overnight at 4°C, protein G/protein A-agarose, immunoblot

binding: no binding
Molecule: Gluc2-tagged receptor-interacting serine/threonine-protein kinase 1 (RIPK1) (from UniProt Q13546 1-671)

binding: binds
B1: Gluc2-tagged TRAF1 (protein, UniProt Q13077 1-416)
chain: MASSSGSSPRPAPDENEFPFGCPPTVCQDPKEPRALCCAGCLSENPRNGEDQICPKCRGEDLQSISPGSRLRTQEKAHPEVAEAGIGCPFAGVGCSFKGSPQSVQEHEVTSQTSHLNLLLGFMKQWKARLGCGLESGPMALEQNLSDLQLQAAVEVAGDLEVDCYRAPCSESQEELALQHFMKEKLLAELEGKLRVFENIVAVLNKEVEASHLALATSIHQSQLDRERILSLEQRVVELQQTLAQKDQALGKLEQSLRLMEEASFDGTFLWKITNVTRRCHESACGRTVSLFSPAFYTAKYGYKLCLRLYLNGDGTGKRTHLSLFIVIMRGEYDALLPWPFRNKVTFMLLDQNNREHAIDAFRPDLSSASFQRPQSETNVASGCPLFFPLSKLQSPKHAYVKDDTMFLKCIVETST
